# The list shows a part of the results. This data set is noisy: repeats of one test often differ as much as different tests do.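 ATM8/balancer (normal ATM) heterozygous flies were crossed on treated food; parents laid eggs 5–6 days, offspring developed ~12 days, so parents and larvae ingested compound. Readout: fraction of emerged adults homozygous for ATM8 versus 2% DMSO controls. Compounds were neutral at 10–20% homozygotes, harmful below 10%, helpful above 20%.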 Peptide text beside a SMILES is read from it. * marks the point of attachment. NHCH2CH2OH = OCCN*; For = O=C*
# Tested on: Drosophila melanogaster ATM8 (temperature-sensitive ATM allele)
# Assay: fraction of eclosed F1 progeny that are homozygous ATM8 (rescue of developmental lethality); higher = more rescue of ATM8 developmental lethality; extreme values may be limits of the assay
# Conditions: compound concentration applied to food 0.2 mM; 21 °C
row,SMILES,fraction of eclosed F1 progeny that are homozygous ATM8
1,CC1(C)C(=O)C=C[C@]2(C)[C@H]3CC[C@@]4(C)[C@H](c5ccoc5)OC(=O)[C@H]5O[C@]54[C@]3(C)C(=O)C[C@@H]12,0.107
2,Oc1ncnc2[nH]ncc12,0.167
3,COc1ccc(C(=O)c2ccccc2)c(O)c1,0.239
4,CC1(C)CCC[C@]2(C)[C@H]3CC(=O)O[C@]3(C)CC[C@@H]12,0.0667
5,COc1ncnc(NS(=O)(=O)c2ccc(N)cc2)c1OC,0.23
6,CC1(C)C(=O)C=CC2(C)C1C=CC1(C)C2CCC2(C)C(c3ccoc3)OC(=O)C3OC312 (centres undefined),0.093
7,C#CCCCCCCCCCCCC(O)CC(O)COC(C)=O (centres undefined),0.118
8,COc1ccc(C(=O)CC(=O)c2ccc(C(C)(C)C)cc2)cc1,0.196
9,Cc1ccc(C(C)C)c(O)c1C(=O)O,0.211
10,CC(=O)O[C@H]1C[C@@H](OC(C)=O)C(C)(C)C2C[C@@H](OC(C)=O)[C@]3(C)C(CC[C@@]4(C)[C@H](c5ccoc5)C(=O)[C@H]5O[C@]543)[C@]21C (some centres undefined),0.157
11,Nc1nc2c(ncn2COCCO)c(=O)[nH]1,0.0714
12,CC1(C)C(=O)[C@H]2C[C@]3(O)C4=CC(=O)O[C@@H](c5ccoc5)[C@@]4(C)CCC3[C@](C)(C2=O)[C@H]1CC(=O)O (some centres undefined),0.118
13,NCCSSCCN,0.108
14,COc1ccc2[nH]c([S@@+]([O-])Cc3ncc(C)c(OC)c3C)nc2c1,0.0455
15,CC(C)NCC(O)c1ccc(O)c(O)c1 (centres undefined),0.104
16,O=c1cc(-c2ccccc2O)oc2cc(O)ccc12,0.129
17,C#C[C@]1(O)CC[C@H]2[C@@H]3CCc4cc(O)ccc4[C@H]3CC[C@@]21C,0.0857
18,Cc1occc(=O)c1O,0.128
19,CC1(C)CC23C(=O)CCC(O)C2(C)CCC13 (centres undefined),0.0909
20,CCOc1cc(CC(=O)N[C@@H](CC(C)C)c2ccccc2N2CCCCC2)ccc1C(=O)O,0.25
21,COc1cc2c(cc1OC)C1(O)C(=O)c3ccc(O)c(C(=O)O)c3OC1CO2 (centres undefined),0.093
22,C[C@@H]1CC[C@@]2(OC1)O[C@H]1[C@@H](O)[C@H]3[C@@H]4CC[C@H]5C[C@@H](O[C@@H]6O[C@H](CO)[C@H](O[C@@H]7O[C@H](CO)[C@@H](O)[C@H](O[C@@H]8OC[C@@H](O)[C@H](O)[C@H]8O)[C@H]7O[C@@H]7O[C@H](CO)[C@H](O)[C@H](O[C@@H]8O[C@H](CO)[C@@H](O)[C@H](O)[C@H]8O)[C@H]7O)[C@H](O)[C@H]6O)[C@H](O)C[C@]5(C)[C@H]4CC[C@]3(C)[C@H]1[C@@H]2C,0.154
23,CCC(C(N)=O)c1ccccc1 (centres undefined),0.0952
24,O=NN(CCCl)C(=O)NCCCl,0.0444
25,CCOC(=O)c1ncn2c1CN(C)C(=O)c1cc(F)ccc1-2,0
26,COc1cc(/C=C/c2ccc(O)cc2)cc(OC)c1,0.0682
27,CC1=C(/C=C/C(C)=C/C=C/C(C)=C/C=C/C=C(C)/C=C/C=C(C)/C=C/C2=C(C)C(=O)CCC2(C)C)C(C)(C)CCC1=O [CANTHAXANTHIN (euglenanone)],0.069

row,SMILES,fraction of eclosed F1 progeny that are homozygous ATM8
1,CC(C(=O)O)c1cccc(C(=O)c2ccccc2)c1 (centres undefined),0.0909
2,Nc1nc(N)c2nc(CNc3ccc(C(=O)N[C@@H](CCC(=O)O)C(=O)O)cc3)cnc2n1,0.093
3,CC(C)c1c(O)ccc2c1CC[C@H]1C(C)(C)CCC[C@]21C,0.147
4,CCCCC(CC)COC(=O)C=Cc1ccc(OC)cc1 (centres undefined),0.13
5,CCCC1O[C@@H]2C[C@H]3[C@@H]4CCC5=CC(=O)C=C[C@]5(C)[C@H]4[C@@H](O)C[C@]3(C)[C@]2(C(=O)CO)O1 (some centres undefined),0.0426
6,Cc1cc(O)ccc1Cl,0.162
7,O=C1CN(/N=C/c2ccc(-c3ccc([N+](=O)[O-])cc3)o2)C(=O)N1,0.0769
8,CC1(O)CCC(C(C)(C)O)CC1 (centres undefined),0.0303
9,CCOC(=O)n1ccn(C)c1=S,0.264
10,COc1cc(O)c2c(c1)C(=O)c1cc(C)cc(O)c1C2=O,0.314
11,CC(C)CC(NC(=O)C(C)NC(=O)CNC(=O)C(NC=O)C(C)C)C(=O)NC(C)C(=O)NC(C(=O)NC(C(=O)NC(C(=O)NC(Cc1c[nH]c2ccccc12)C(=O)NC(CC(C)C)C(=O)NC(Cc1c[nH]c2ccccc12)C(=O)NC(CC(C)C)C(=O)NC(Cc1c[nH]c2ccccc12)C(=O)NC(CC(C)C)C(=O)NC(Cc1c[nH]c2ccccc12)C(=O)NCCO)C(C)C)C(C)C)C(C)C (centres undefined) [GRAMICIDIN (gramicidin A shown)] (For-VGALAVVVWLWLWLW-NHCH2CH2OH; configuration not given here),0.184
12,CC1(C)S[C@@H]2[C@H](NC(=O)[C@H](C(=O)O)c3ccsc3)C(=O)N2[C@H]1C(=O)O,0.0625
13,C=C[C@H]1CN2CC[C@H]1C[C@H]2[C@H](OC(=O)OCC)c1ccnc2ccc(OC)cc12,0.197
14,C=C[C@](C)(O)CCC=C(C)C,0.232
15,CN[C@@H]1[C@@H](O)[C@@H](O[C@@H]2[C@@H](O)[C@H](O[C@H]3OC(CN)=CC[C@H]3N)[C@@H](N)C[C@H]2N)OC[C@]1(C)O,0.025
16,CC(C)(C)C(=O)C(Oc1ccc(Cl)cc1)n1ccnc1 (centres undefined),0.14
17,Cc1c(C(=O)O)c(O)cc2c1C(=O)c1c(O)c([C@@H]3O[C@H](CO)[C@@H](O)[C@H](O)[C@H]3O)c(O)c(O)c1C2=O,0.135
18,CC(=O)Oc1c2c(c(CC=C(C)C)c3c1C(=O)C1=C[C@@H]4CC5C(C)(C)OC(C/C=C(\C)C(=O)O)(C4=O)[C@@]15O3)OC(C)(CCC=C(C)C)C=C2 (some centres undefined),0.4
19,CC(C)=CCC/C(C)=C/CC/C(C)=C/CO,0.0833
20,c1ccc2c(c1)CN1CCCC1=N2,0.125
21,O=C1CN(/N=C/c2ccc([N+](=O)[O-])o2)C(=O)N1,0.176
22,S=c1ccss1,0.143
23,Cc1ccccc1OCC(O)CO (centres undefined),0.0286
24,C[C@H](N)[C@H](O)c1cccc(O)c1,0.0956
25,CC1(C)S[C@@H]2[C@H](NC(=O)C(C(=O)O)c3ccccc3)C(=O)N2[C@H]1C(=O)O (some centres undefined),0.0303
26,C=C[C@@]1(C)CC(=O)[C@]2(O)[C@@]3(C)[C@@H](O)CCC(C)(C)[C@@H]3[C@H](O)[C@H](OC(C)=O)[C@@]2(C)O1,0.123
27,CN(Cc1cnc2nc(N)nc(N)c2n1)c1ccc(C(=O)NC(CCC(=O)O)C(=O)O)cc1 (racemic),0

# Sorted by formula weight (falling): some entries from above.
row,SMILES,fraction of eclosed F1 progeny that are homozygous ATM8
27,CN(Cc1cnc2nc(N)nc(N)c2n1)c1ccc(C(=O)NC(CCC(=O)O)C(=O)O)cc1 (racemic),0
1,CC(C(=O)O)c1cccc(C(=O)c2ccccc2)c1 (centres undefined),0.0909
19,CC(C)=CCC/C(C)=C/CC/C(C)=C/CO,0.0833
